The experiment deals with PREPL(L)-Flag (prolyl-endopeptidase like, long mitochondrial isoform, Flag-tagged) (human) (UniProt Q4J6C6). As to the kind of experiment: affinity purification with mass spectrometry.

Chains of the proteins cited; added tags and fusions are not shown.
UniProt Q4J6C6: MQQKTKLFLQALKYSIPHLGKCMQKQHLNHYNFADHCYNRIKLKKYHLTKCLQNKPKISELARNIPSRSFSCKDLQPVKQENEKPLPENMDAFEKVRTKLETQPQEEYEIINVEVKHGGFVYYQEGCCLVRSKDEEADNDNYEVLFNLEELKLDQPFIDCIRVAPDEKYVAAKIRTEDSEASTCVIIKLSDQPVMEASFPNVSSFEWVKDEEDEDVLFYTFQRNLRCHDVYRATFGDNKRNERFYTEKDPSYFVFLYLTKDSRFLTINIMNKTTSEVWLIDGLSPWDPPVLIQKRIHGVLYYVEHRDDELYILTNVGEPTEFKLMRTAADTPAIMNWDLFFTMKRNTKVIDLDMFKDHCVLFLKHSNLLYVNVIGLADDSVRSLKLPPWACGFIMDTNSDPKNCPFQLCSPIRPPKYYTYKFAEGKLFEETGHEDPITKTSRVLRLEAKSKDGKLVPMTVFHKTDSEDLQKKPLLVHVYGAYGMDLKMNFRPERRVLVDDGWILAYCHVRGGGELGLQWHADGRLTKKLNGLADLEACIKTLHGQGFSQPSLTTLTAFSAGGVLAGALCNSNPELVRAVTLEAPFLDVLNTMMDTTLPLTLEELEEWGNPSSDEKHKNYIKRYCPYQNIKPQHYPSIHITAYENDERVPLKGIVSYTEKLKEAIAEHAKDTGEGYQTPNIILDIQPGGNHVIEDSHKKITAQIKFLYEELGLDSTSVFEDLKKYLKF

The values below come from article doi:10.1101/2023.02.11.528118.

No constants are given. Whether binding was seen depends on the method and setting. Binding seen in cells or lysates may run through a third protein. A yes stands for co-enrichment or nearness to the bait. Other partners may have been found.

B1: FASTKD4 (protein, UniProt Q969Z0 108-631)
chain: SHLLSEKPEDKGLLIQDAHFHQLLCLLNSQIASVWHGTLSKLLGSLYALGIPKASKELQSVEQEVRWRMRKLKYKHLAFLAESCATLSQEQHSQELLAELLTHLERRWTEIEDSHTLVTVMMKVGHLSEPLMNRLEDKCLELVEHFGPNELRKVLVMLAAQSRRSVPLLRAISYHLVQKPFSLTKDVLLDVAYAYGKLSFHQTQVSQRLATDLLSLMPSLTSGEVAHCAKSFALLKWLSLPLFEAFAQHVLNRAQDITLPHLCSVLLAFARLNFHPDQEDQFFSLVHEKLGSELPGLEPALQVDLVWALCVLQQAREAELQAVLHPEFHIQFLGGKSQKDQNTFQKLLHINATALLEYPEYSGPLLPASAVAPGPSALDRKVTPLQKELQETLKGLLGSADKGSLEVATQYGWVLDAEVLLDSDGEFLPVRDFVAPHLAQPTGSQSPPPGSKRLAFLRWEFPNFNSRSKDLLGRFVLARRHIVAAGFLIVDVPFYEWLELKSEWQKGAYLKDKMRKAVAEELAK
As to B1, the binding result is reported as “binds”.
